Source: PubChem BioAssay AID1439 (NMMLSC, 2008)
Screen size: about 220,000 compounds; about 770 (0.35%) were called active. Inconclusive results, whose numbers are uncertain, are shown with a selection of clear calls. Cut-off read from the data, not from the text of the source: active = binding response below about 49% or above about 150%; inconclusive = no clear call, values can overlap the other calls; inactive = in between.

Amino acid sequences for entries named in this document (tags omitted).
UniProt P09471, whole entry, looked up: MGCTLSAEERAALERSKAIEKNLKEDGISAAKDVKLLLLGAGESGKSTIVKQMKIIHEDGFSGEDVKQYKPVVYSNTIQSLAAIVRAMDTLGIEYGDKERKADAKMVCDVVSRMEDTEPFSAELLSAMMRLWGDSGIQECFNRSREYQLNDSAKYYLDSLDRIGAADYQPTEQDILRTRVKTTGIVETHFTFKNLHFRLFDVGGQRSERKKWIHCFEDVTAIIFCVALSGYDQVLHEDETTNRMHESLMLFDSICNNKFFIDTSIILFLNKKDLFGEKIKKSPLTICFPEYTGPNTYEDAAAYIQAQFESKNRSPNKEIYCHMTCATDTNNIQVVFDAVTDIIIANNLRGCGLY

Molecular target: Guanine nucleotide-binding protein G(o) subunit alpha (Homo sapiens) (UniProt P09471)
Assay: RGS7-Galphao binding modulators, primary screen, biochemical, multiplexed bead flow cytometry (AID 1439);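 note: fluorescent Galphao held in activated GDP-AlF4 state binding bead-coupled RGS7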
Settings: at 10 µM, actives lie on both sides

| SMILES | binding response (% of control) |
| --- | --- |
| COc1cccc(NC(=S)N(CCN2CCCCC2)Cc2ccco2)c1 | inconclusive: 104% |
| CSCC(CO)NS(=O)(=O)c1ccc(C)cc1 (stereo not given) | inconclusive: 48.5% |
| Cc1ccc(C)c2nc3sc(C(=O)O)cc3cc12 | inactive: 101% |
| Cc1cccc(-c2n[nH]c(=S)n2/N=C/c2cccs2)c1 | inconclusive: 92.8% |
| CC(=O)N1CCN(c2ccc(NC(=O)c3ccc(OCc4ccccc4)cc3)cc2)CC1 | inconclusive: 103% |
| O=C(NNc1c(Cl)cc(Cl)cc1Cl)c1n[nH]c(=O)c2ccccc12 | inconclusive: 116% |
| Cc1ccc(Cl)cc1NC(=S)N(CCCN1CCN(C)CC1)Cc1ccco1 | inconclusive: 121% |
| N#C/C(=C\c1cccs1)C(=O)Nc1ccccn1 | inconclusive: -401% |
| COc1cc(NC(=O)c2ccc3snnc3c2)cc(OC)c1 | inconclusive: 102% |
| O=c1oc2cc([N+](=O)[O-])ccc2nc1/C=C(\O)c1cccc(Br)c1 | inconclusive: 87.2% |
| N/C(=N\OC(=O)Nc1cccc(C(F)(F)F)c1)c1ccno1 | inconclusive: 112% |
| Cc1cc(Cl)c(S(=O)(=O)N2CCN(c3ccccn3)CC2)cc1OCC(N)=O | inactive: 104% |
| N#Cc1c(-c2ccccc2)nc(N2CCCCCC2)[nH]c1=O | inactive: 88.5% |
| O=C1NCCN(Cc2ccoc2)C1CC(=O)N(CCO)Cc1ccccc1 (stereo not given) | inactive: 97.5% |
| Cc1cccc(CSCc2ccc(C(=O)NC3CCCC3)o2)c1 | inactive: 84.8% |
| Cc1cc(=O)oc2cc(OCc3ccc(C(=O)OCC(=O)N(C)C4CCS(=O)(=O)C4)cc3)ccc12 (stereo not given) | inconclusive: 100% |
| COc1ccc(N2CCN(C(=O)C3CCCN(S(=O)(=O)c4c(C)noc4C)C3)CC2)cc1 (stereo not given) | inconclusive: 107% |
| Cc1c(-n2c(SCC(=O)C(C)(C)C)nc3ccccc3c2=O)c(=O)n(-c2ccccc2)n1C | inconclusive: 93.6% |
| O=C(NCc1ccco1)C(=O)c1cn(CC(=O)N2CCCCCC2)c2ccccc12 | inactive: 93.9% |
| CCOc1cc(/C=C/C(=O)NCCc2ccc(S(N)(=O)=O)cc2)ccc1OCC(C)C | inconclusive: 85.4% |
| CCc1cccc2c(C(=O)C(F)(F)F)cn(CC(=O)N3CCOCC3)c12 | inconclusive: 97.8% |
| O=C(Cc1ccccc1F)Nc1nc2ccccc2[nH]1 | inconclusive: 87% |
| O=C(NCc1ccc(Cl)cc1)C1CCCO1 (stereo not given) | inconclusive: 95.6% |

Quoted from the listing (three entries):

| SMILES | binding response (% of control) |
| --- | --- |
| O=c1oc2cc([N+](=O)[O-])ccc2nc1/C=C(\O)c1cccc(Br)c1 | inconclusive: 87.2% |
| N/C(=N\OC(=O)Nc1cccc(C(F)(F)F)c1)c1ccno1 | inconclusive: 112% |
| Cc1cc(Cl)c(S(=O)(=O)N2CCN(c3ccccn3)CC2)cc1OCC(N)=O | inactive: 104% |

Next part.

| SMILES | binding response (% of control) |
| --- | --- |
| CCCNC(=S)Nc1c(C)n(C)n(-c2ccccc2)c1=O | inactive: 96% |
| Nc1ccc(S(=O)(=O)C(F)(F)F)cc1N | inconclusive: 83.8% |
| Cc1ccc(C)c(Sc2ccc(NC(=O)CCl)cc2)c1 | inactive: 116% |
| CCN(Cc1nc2ccccc2c(=O)[nH]1)Cc1nc2ccsc2c(=O)[nH]1 | inconclusive: 92.1% |
| Oc1ccccc1CNCc1ccccc1 | inconclusive: 88.3% |
| Cc1nc(-c2ccc(Cl)cc2)sc1C1(C)CC(c2ccccc2F)=NO1 (stereo not given) | inconclusive: 79.7% |
| CCOC(=O)N1CCN(Cc2cn[nH]c2-c2cc3ccccc3o2)CC1 | inactive: 100% |
| COc1ccc(N2C(=O)c3ccccc3NC2c2ccc(OC)c(CN3CCOCC3)c2)cc1 (stereo not given) | inconclusive: 242% |
| CCCNC(=O)c1onc(CSc2ccncc2)c1C(=O)NCCC | inconclusive: 127% |
| CC(=O)NS(=O)(=O)c1ccc(N=c2ssc3c2-c2ccc(C)cc2NC3(C)C)cc1 | inactive: 101% |
| Nc1ccccc1SCC(=O)Nc1nc(-c2ccccc2)cs1 | inconclusive: 103% |
| COc1c(O)ccc(/C=N/NC(=O)c2ccc3c(c2)OCCO3)c1[N+](=O)[O-] | inconclusive: 75.6% |
| Cc1ccc(CSc2nnc(-c3cnccn3)n2C)cc1 | inconclusive: 90.3% |
| CCCn1c(N)c(CC)c(=O)[nH]c1=O | inconclusive: 91.6% |
| CCOc1ccc(NC(=O)C2C3CC/C=C\CCC32)cc1 (stereo not given) | inconclusive: 109% |
| COC(=O)C1(C)NC(c2ccco2)C2C(=O)N(c3ccc(F)cc3)C(=O)C21 (stereo not given) | inconclusive: 80% |
| COc1ccc(NC(=O)CSc2nnc(CNC(=O)COc3ccc(Cl)cc3)o2)c(OC)c1 | inactive: 106% |
| Cc1ccc(S(=O)(=O)NCC(=O)OCC(=O)Nc2cccc(S(=O)(=O)NC3=NCCCCC3)c2)cc1C | inconclusive: 107% |
| O=C(NCc1cccnc1)c1ccccc1-c1ccccc1 | inconclusive: 60.8% |
| Cc1nn(C(C)(C)C)c(C)c1/C=N/OC(=O)Nc1ccc(Cl)cc1 | inconclusive: 103% |
| Oc1ccccc1N1CCN(c2nc(-c3cccs3)nc3ccccc23)CC1 | inconclusive: 56% |
| CCC1=C(OC(=O)N(CC)CC)N2C(=O)OC(=NCCc3c[nH]c4ccccc34)[C@]2(C)[C@H]2C1=CC[C@H]1C(=O)N(CC)C(=O)[C@H]12 | inconclusive: 126% |
